# Assay results as given in PubChem BioAssay AID504834 (National Center for Advancing Translational Sciences (NCATS), 2011).
# Out of some 320,000 compounds screened, about 22,000 (6.9%) were called active. Inconclusive means that the source gave no clear call. Such entries were picked first, then a sample of the others. Calls follow the shape of the dose curve; as a rule, active = well fitted inhibition curve with a large enough effect; inconclusive = small, poorly fitted or top-dose-only effect, or another doubt; inactive = no such curve, though single readings can be large or run the other way. Where the call is inconclusive, the potency comes from a doubtful curve fit.
# Assay: Primary qHTS for delayed death inhibitors of the malarial parasite plastid, 96 hour incubation
# Conditions: P. falciparum luciferase reporter growth; series mostly up to 28.7 µM; activity change, negative = inhibition: at the top concentration
# Procedure, shortened: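 Cell-based qHTS: luciferase-tagged P. falciparum in erythrocytes (2% hematocrit, 0.05% parasitemia final) incubated with compounds for 96 hours, 37 C, 5% CO2; luciferase detection reagent then added and luminescence measured.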
# % is scaled to controls: 0 for no effect and ±100 for the full control effect; potency is read from the fitted curve at half-maximal effect.
SMILES,Potency,"activity change, negative = inhibition"
CC(C)(C)NC(=O)C(c1ccncc1)N(C(=O)c1csnn1)c1cccc2ccccc12 (configuration not stated),"inconclusive: 2.62 µM [inhibitor, full curve]",
Cc1ccc(NC(=O)CSc2ccccc2NC(=O)c2ccccc2)cc1Cl,,inactive: 84.5%
CCOC(=O)C1CCCN(C(=O)c2cccc(S(=O)(=O)N(C)c3ccc(C)cc3)c2)C1 (configuration not stated),"inconclusive: 18.5 µM [inhibitor, single point]",
Cn1cnnc1Sc1cc(N2CCNCC2)ccc1[N+](=O)[O-],"inconclusive: 20.8 µM [inhibitor, single point]",
CCN1CCN(CCCNC(=O)CCc2nc(-c3ccc(OC)cc3)no2)CC1,"inconclusive: 0.0465 µM [inhibitor, full curve, poor fit]",
CC(C)(C)C1CCc2[nH]c3ccccc3c(=O)c2C1 (configuration not stated),"inconclusive: 9.28 µM [inhibitor, single point]",
COc1ccc(CCNC(=O)Cn2c(=O)oc3cc(Cl)ccc32)cc1OC,"inconclusive: 14.7 µM [inhibitor, partial curve, poor fit]",
CCc1nc2sc3c(O)cc(=O)[nH]c3c2cc1C,"inconclusive: 18.5 µM [inhibitor, single point]",
O=C(NCCCCc1ccccc1)C12CN(Cc3ccccc3)CC1C(c1cccc([N+](=O)[O-])c1)=NO2 (configuration not stated),"inconclusive: 2.08 µM [inhibitor, partial curve, poor fit]",
COc1cc(/C(C)=N/N2CCN(c3ccccc3OC)CC2)ccc1O,"inconclusive: 18.5 µM [inhibitor, single point]",
COc1ccc(S(=O)(=O)N2CCOCC2)cc1NC(=O)Cc1c(Cl)cccc1Cl,active: 8.28 µM,
CS(=O)(=O)c1cccc(C(=O)OCC(=O)c2ccc3c(c2)OCCO3)c1,,inactive: -3.66%
O=C(Nc1ccccc1F)C1(c2ccccc2)CC1(Cl)Cl (configuration not stated),"inconclusive: 18.5 µM [inhibitor, single point]",
O=[N+]([O-])c1ncn(C23CC4CC(CC(C4)C2)C3)n1,"inconclusive: 11.7 µM [inhibitor, single point]",
COc1ccc2c(C)cc3nncn3c2c1,,inactive: -13.3%
CCc1ccc(-c2nc(NC(=O)c3ccc(OCC(=O)Nc4ccc(F)cc4)c(OC)c3)sc2C)cc1,"inconclusive: 11.7 µM [inhibitor, single point]",
CCN(CC)CCn1c2c(c(SCC(=O)Nc3ccccc3Cl)nc1=O)CCC2,"inconclusive: 14.7 µM [inhibitor, single point]",
CC(N=c1ccccn1C(=O)Nc1cccc(C(F)(F)F)c1)c1ccco1 (configuration not stated),"inconclusive: 0.294 µM [inhibitor, partial curve, poor fit]",
COc1cccc(Cl)c1NC(=O)N1CCN(c2ccnc3cc(Cl)ccc23)CC1,"inconclusive: 5.22 µM [inhibitor, partial curve]",
COC(=O)c1cc(-c2c(-c3cc(OC)c(OC)c(OC)c3)noc2C)cc([N+](=O)[O-])c1,,inactive: -19.7%
O=C(O)c1cccc(S(=O)(=O)Nc2ccc(S(=O)(=O)N3CCOCC3)cc2)c1,,inactive: -15.6%
O=C(CSc1nnc(CCc2nc3ccccc3[nH]2)n1-c1ccccc1)NCc1ccco1,"inconclusive: 18.5 µM [inhibitor, single point]",
COc1ccc(C2=NN(C(C)=O)C(c3cccs3)C2)cc1OC (configuration not stated),"inconclusive: 11.7 µM [inhibitor, single point]",
CCOC(=O)c1cnc2ncnn2c1N,,inactive: -15.7%

SMILES,Potency,"activity change, negative = inhibition"
CCOC(=O)c1ccc(-c2c(-c3ccccc3OC)oc3ccccc23)cc1F,active: 3.29 µM,
CC(C)C[C@H](NC(=O)c1[nH]cnc1C(=O)Nc1ccc(CNC(=O)OC(C)(C)C)cc1)C(=O)OCc1ccccc1,"inconclusive: 9.28 µM [inhibitor, partial curve, poor fit]",
CCC1(c2ccccc2)NC(=O)N(CC(=O)NNC(=O)COc2ccc(Cl)cc2C)C1=O (configuration not stated),,inactive: -9.13%
CC(=O)c1ccc(NC(=O)CSc2nnc(Cc3cccn3C)n2-c2ccc(F)cc2)cc1,"inconclusive: 5.22 µM [inhibitor, single point]",
COc1ccc(-c2csc3ncnc(N4CCN(S(=O)(=O)c5ccc(Cl)s5)CC4)c23)cc1,"inconclusive: 18.5 µM [inhibitor, single point]",
Cc1ccc(NC(=O)COC(=O)c2cccc3c(=O)c(C)c(-c4ccccc4)oc23)cc1,,inactive: -8.08%
C/C(=N\Nc1ccc(C(F)(F)F)cn1)c1ccc(S(=O)(=O)NCc2ccco2)cc1,,inactive: -4.72%
Cc1cc2nc(-c3ccc(=O)[nH]c3)n(Cc3ccccc3)c2cc1C,"inconclusive: 4.65 µM [inhibitor, partial curve]",
COc1ccc(NC(=S)N(CCN(C)C)C(C)c2ccncc2)cc1Cl (configuration not stated),"inconclusive: 18.5 µM [inhibitor, single point]",
Cc1cc(C)cc(NC(=O)c2ccc(CNc3c(N4CCCC4)c(=O)c3=O)cc2)c1,active: 0.522 µM,
COc1ccc(Cn2c(C3CC3)nc3ccc(NC(=O)c4cccnc4)cc3c2=O)cc1,,inactive: 0.291%
FC(F)(F)c1cccc(NC(=S)NNC(=S)Nc2ccc(Cl)cc2)c1,active: 11.7 µM,
O=C(Cc1ccccc1)Nc1ccccc1C(=O)N1CCN(c2ccccc2)CC1,"inconclusive: 18.5 µM [inhibitor, partial curve, poor fit]",
N#Cc1cc([N+](=O)[O-])ccc1NCCCn1ccnc1,,inactive: -0.478%
CN(C1CCCCC1)S(=O)(=O)c1ccc2c(c1)c(=O)c(C(=O)NCCCN1CCCC1)cn2C,active: 13.1 µM,
Cc1onc(-c2c(Cl)cccc2Cl)c1C(=O)N1CCN(c2ccccc2F)CC1,"inconclusive: 18.5 µM [inhibitor, single point]",
CC(N1CCOC1=O)S(=O)(=O)c1ccccc1 (configuration not stated),,inactive: 23.1%
CCC(=O)Nc1nnc(S(=O)(=O)N2c3ccccc3CC2C)s1 (configuration not stated),,inactive: 45.2%
Cc1cccc(C)c1NC(=O)COc1ccc2c(C)c(Cc3ccccc3)c(=O)oc2c1,"inconclusive: 13.1 µM [inhibitor, single point]",
COc1ccc(-c2nc3ccccc3nc2-c2ccccc2)cc1OC,"inconclusive: 11.7 µM [inhibitor, single point]",
O=C(c1nc2ncccn2n1)N1CCc2ccccc2C1,,inactive: 13.5%
CCOc1ccccc1NC(=O)CNC(=O)CNC(=O)Cc1ccccc1,"inconclusive: 13.1 µM [inhibitor, partial curve]",
CN1CCN(S(=O)(=O)c2cccc(C(=O)N(c3ccccn3)C3CCCCC3)c2)CC1,"inconclusive: 18.5 µM [inhibitor, single point]",

SMILES,Potency,"activity change, negative = inhibition"
O=C(OC(C(=O)NC1CCCC1)c1ccccn1)c1cccs1 (configuration not stated),,inactive: 18.9%
CCCC1=Nc2cc(C(=O)N3CCC(C(=O)OCC)CC3)ccc2Sc2ccccc21,active: 9.28 µM,
CCCCSc1nnc(CCC)n1N,"inconclusive: 10.4 µM [inhibitor, partial curve, poor fit]",
CCN=c1scc(-c2ccco2)n1/N=C/c1ccc(O)cc1,"inconclusive: 16.5 µM [inhibitor, single point]",
C=CCN1CCN(C(=O)c2oc3ccccc3c2C)CC1,"inconclusive: 13.1 µM [inhibitor, single point]",
CC1(c2ccc3c(c2)OCO3)NC(=O)N(CC(=O)NCCC2=CCCCC2)C1=O (configuration not stated),,inactive: 56.4%
CCOC(=O)c1cnc2ccc(OCC)cc2c1NCc1ccccc1,"inconclusive: 2.62 µM [inhibitor, single point]",
CCn1cc(C(=O)NCCO)c(=O)c2cc(F)c(N3CCN(C)CC3)cc21,,inactive: 13.3%
COc1cc(NC(=S)NCCCO)c(OC)cc1Cl,"inconclusive: 0.294 µM [inhibitor, partial curve, poor fit]",
COCc1cc(C)nc(SCC(=O)Oc2ccccc2)c1C#N,"inconclusive: 3.29 µM [inhibitor, partial curve, poor fit]",
CCc1sc(C(=O)NC(C)C2CCCO2)cc1Br (configuration not stated),"inconclusive: 18.5 µM [inhibitor, single point]",
O=C(O)C1CCCCC1C(=O)NC1C2CC3CC(C2)CC1C3 (configuration not stated),,inactive: 359%
C(=N\Nc1nn[nH]n1)/c1ccccc1,,inactive: 12.5%
CCN(CC(=O)Nc1ccccc1C(F)(F)F)C(=O)c1oc2ccc(OC)cc2c1C,"inconclusive: 13.1 µM [inhibitor, single point]",
Cc1cc(C)cc(N(CC(=O)NC(C)C)C(=O)CCC(=O)Nc2ccccn2)c1,"inconclusive: 14.7 µM [inhibitor, partial curve, poor fit]",
Cc1nn2c(NCCCN(C)C)c3c(nc2c1-c1ccccc1)CCC3,active: 10.4 µM,
CCOC(=O)N1CCN(C(=O)C2CCN(S(=O)(=O)c3ccc(NC(C)=O)cc3)CC2)CC1,active: 8.28 µM,
O=C(Nc1nc2ccccc2[nH]1)c1ccccc1O,,inactive: 2.76%
O=C(NCc1ccc2c(c1)OCO2)c1nnc(Cc2ccc(F)cc2)o1,"inconclusive: 13.1 µM [inhibitor, partial curve, poor fit]",
Cc1cccc(NC(=O)C2CCCN2S(=O)(=O)c2ccc3c(c2)n(C)c(=O)c(=O)n3C)c1 (configuration not stated),active: 8.28 µM,
CC(C)(C)n1cn[nH]c1=S,,inactive: 22.1%
COc1ccc(/C=C/C(=O)Nc2ccc3nc4n(c(=O)c3c2)CCCC4)cc1OC,"inconclusive: 1.85 µM [inhibitor, partial curve, poor fit]",
CCC(CC)C(=O)NCc1ccc(OC)cc1,,inactive: 8.59%

# A different layout for 18 compounds above.
SMILES	Potency	activity change, negative = inhibition
C/C(=N\Nc1ccc(C(F)(F)F)cn1)c1ccc(S(=O)(=O)NCc2ccco2)cc1		inactive: -4.72%
Cc1cc2nc(-c3ccc(=O)[nH]c3)n(Cc3ccccc3)c2cc1C	inconclusive: 4.65 µM [inhibitor, partial curve]	
COc1ccc(NC(=S)N(CCN(C)C)C(C)c2ccncc2)cc1Cl (configuration not stated)	inconclusive: 18.5 µM [inhibitor, single point]	
Cc1cc(C)cc(NC(=O)c2ccc(CNc3c(N4CCCC4)c(=O)c3=O)cc2)c1	active: 0.522 µM	
COc1ccc(Cn2c(C3CC3)nc3ccc(NC(=O)c4cccnc4)cc3c2=O)cc1		inactive: 0.291%
FC(F)(F)c1cccc(NC(=S)NNC(=S)Nc2ccc(Cl)cc2)c1	active: 11.7 µM	
O=C(Cc1ccccc1)Nc1ccccc1C(=O)N1CCN(c2ccccc2)CC1	inconclusive: 18.5 µM [inhibitor, partial curve, poor fit]	
N#Cc1cc([N+](=O)[O-])ccc1NCCCn1ccnc1		inactive: -0.478%
CN(C1CCCCC1)S(=O)(=O)c1ccc2c(c1)c(=O)c(C(=O)NCCCN1CCCC1)cn2C	active: 13.1 µM	
Cc1onc(-c2c(Cl)cccc2Cl)c1C(=O)N1CCN(c2ccccc2F)CC1	inconclusive: 18.5 µM [inhibitor, single point]	
CC(N1CCOC1=O)S(=O)(=O)c1ccccc1 (configuration not stated)		inactive: 23.1%
CCC(=O)Nc1nnc(S(=O)(=O)N2c3ccccc3CC2C)s1 (configuration not stated)		inactive: 45.2%
Cc1cccc(C)c1NC(=O)COc1ccc2c(C)c(Cc3ccccc3)c(=O)oc2c1	inconclusive: 13.1 µM [inhibitor, single point]	
COc1ccc(-c2nc3ccccc3nc2-c2ccccc2)cc1OC	inconclusive: 11.7 µM [inhibitor, single point]	
O=C(c1nc2ncccn2n1)N1CCc2ccccc2C1		inactive: 13.5%
CCOc1ccccc1NC(=O)CNC(=O)CNC(=O)Cc1ccccc1	inconclusive: 13.1 µM [inhibitor, partial curve]	
CN1CCN(S(=O)(=O)c2cccc(C(=O)N(c3ccccn3)C3CCCCC3)c2)CC1	inconclusive: 18.5 µM [inhibitor, single point]	
O=C(OC(C(=O)NC1CCCC1)c1ccccn1)c1cccs1 (configuration not stated)		inactive: 18.9%
